For at least one compound, name, drawing or mass did not settle the structure.
Target: human V2 receptor (Homo sapiens, UniProt P30518)
Assay: Study to confirm the agonism of human V2 receptor (intracellular Ca2+, HEK293 cells coexpressing human V2 receptor and Gqs chimeric protein)
Format: cell-based
Parameters: expressed in transfected cells; host or cells: HEK293 cells (American Type Culture Collection), transient transfection with pCI-neo/hV2 and pLEC-Gqs5
Conditions: maximum response relative to AVP = 1
Procedure: The Study to Confirm the Agonism of Human V2 Receptor
The experiment to confirm the response of the test compounds to human V2 receptor was carried out using the cells prepared as described below in order to use this confirmation study to see the agonism of human V2 receptor of the test compounds.
The test compounds were dissolved in dimethylsulfoxide at 10 mM and solutions of the test compounds were prepared by 10-fold serial dilution with the Assay buffer (0.1% BSA, 20 mM HEPES/Hank's balanced salt solution, pH 7.4) at the concentration of 0.1 nM to 10 μM, which were used in this study.
Human V2 receptor couples with Gs protein, one of the G-coupling protein, and consequently produces cyclic adenosine 3′, 5′-monophosphate (cAMP) via adenylate cyclase. […] The responses of the test compounds for human V2 receptor were quantified by measuring this intracellular Ca^2+. The changes of intracellular Ca^2+ after adding the test compounds at each concentration as mentioned above (0.1 nM to 10 μM) were measured with a FlexStation (Molecular Devices) using a FLIPR CALCIUM ASSAY KIT (Molecular Devices).
The intrinsic activities (IA) of the test compounds were calculated from the maximum response of the test compounds as that of AVP was considered to be 1. […]

## O=C(O)CN1Cc2ccccc2N(C(=O)c2ccc(OCC(F)(F)F)cc2Cl)CC1=O [Example 2-5, 1-[2-chloro-4-(2,2,2-trifluoroethoxy)-benzoyl]-3-oxo-1,2,3,5-tetrahydrobenzo[e]-1,4-diazepin-4-yl acetic acid]
  IA (intrinsic activity): 1.03
